Assay results taken from paper PMC8191758.
Residue numbers refer to the chain shown, from its start. No constants are given. Whether binding was seen depends on the method and setting. In cells and extracts the contact can be indirect. Some results given as binding are weak or reduced against the parent protein; the word gives no strength.

By UniProt entry, the sequences of proteins in these tests, tags left out.
UniProt O95639: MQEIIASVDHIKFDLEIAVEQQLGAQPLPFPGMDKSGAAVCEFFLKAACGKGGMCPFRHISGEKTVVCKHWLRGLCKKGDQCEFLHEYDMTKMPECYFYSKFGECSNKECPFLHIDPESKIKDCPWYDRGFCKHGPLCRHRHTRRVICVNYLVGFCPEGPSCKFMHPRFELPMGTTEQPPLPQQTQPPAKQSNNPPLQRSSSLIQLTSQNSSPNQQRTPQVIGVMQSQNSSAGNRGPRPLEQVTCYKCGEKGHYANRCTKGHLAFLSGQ

Assays:
Assay in all cases: co-IP; HA-CPSF4 and FLAG-tagged PAPα forms co-expressed in HeLa cells, about 48 h; lysis buffer 50 mM Tris-HCl pH 7.5, 150 mM NaCl, 10% glycerol, 0.5% NP-40; affinity gel, 4°C, 3-4 h; Western blot; in one panel lysates with or without RNase A
[1] = biological target: FLAG-tagged human poly(A) polymerase α (PAPα), wild type (human) (UniProt P51003)
[2] = biological target: T1, PAPα^3SA (S537, S545 and S558 mutated to Ala) (human) (UniProt P51003)
T1 sequence: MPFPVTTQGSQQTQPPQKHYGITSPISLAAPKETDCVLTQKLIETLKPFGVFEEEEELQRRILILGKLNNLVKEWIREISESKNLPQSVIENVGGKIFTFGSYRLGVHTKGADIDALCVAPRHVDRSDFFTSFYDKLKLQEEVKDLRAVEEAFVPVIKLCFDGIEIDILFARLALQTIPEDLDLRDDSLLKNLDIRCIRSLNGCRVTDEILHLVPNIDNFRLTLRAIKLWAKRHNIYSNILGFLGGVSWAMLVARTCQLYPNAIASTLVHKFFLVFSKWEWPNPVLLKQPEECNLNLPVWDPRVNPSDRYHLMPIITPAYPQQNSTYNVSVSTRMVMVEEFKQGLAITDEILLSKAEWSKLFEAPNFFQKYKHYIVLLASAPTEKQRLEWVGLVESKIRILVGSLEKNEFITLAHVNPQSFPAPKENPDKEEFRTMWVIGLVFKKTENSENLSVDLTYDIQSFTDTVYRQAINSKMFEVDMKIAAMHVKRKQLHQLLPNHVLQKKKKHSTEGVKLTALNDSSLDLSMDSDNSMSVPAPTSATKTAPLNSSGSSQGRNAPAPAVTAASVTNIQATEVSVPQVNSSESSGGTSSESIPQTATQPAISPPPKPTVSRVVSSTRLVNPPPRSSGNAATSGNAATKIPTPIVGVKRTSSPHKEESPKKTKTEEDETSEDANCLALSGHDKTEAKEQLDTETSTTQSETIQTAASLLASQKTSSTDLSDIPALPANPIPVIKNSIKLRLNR

[3] = biological target: T2, PAPα^3SD (phosphorylation-mimicking PAPα; S537, S545 and S558 mutated to Asp) (human) (UniProt P51003)
T2 sequence: T1 sequence with A537D, A545D, A558D

[4] = biological target: T3, PAPα^△496–643aa (human) (UniProt P51003)
T3 sequence: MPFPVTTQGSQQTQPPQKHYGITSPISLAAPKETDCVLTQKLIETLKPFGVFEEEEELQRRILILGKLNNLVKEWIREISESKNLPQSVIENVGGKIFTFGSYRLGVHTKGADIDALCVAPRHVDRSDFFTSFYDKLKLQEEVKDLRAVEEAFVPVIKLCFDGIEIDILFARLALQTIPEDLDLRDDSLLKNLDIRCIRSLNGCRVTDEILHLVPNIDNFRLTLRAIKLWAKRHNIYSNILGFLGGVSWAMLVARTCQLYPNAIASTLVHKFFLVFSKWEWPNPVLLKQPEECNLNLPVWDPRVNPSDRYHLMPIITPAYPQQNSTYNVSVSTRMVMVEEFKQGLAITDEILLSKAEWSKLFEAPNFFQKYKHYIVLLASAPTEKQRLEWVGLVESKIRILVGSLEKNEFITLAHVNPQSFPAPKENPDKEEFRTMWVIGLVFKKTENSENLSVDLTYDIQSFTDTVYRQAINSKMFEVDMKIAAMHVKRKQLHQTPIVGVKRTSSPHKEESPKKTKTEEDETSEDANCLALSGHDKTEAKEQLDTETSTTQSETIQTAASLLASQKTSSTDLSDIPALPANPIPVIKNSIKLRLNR

[5] = biological target: T4, PAPα^△644–745aa (human) (UniProt P51003)
T4 sequence: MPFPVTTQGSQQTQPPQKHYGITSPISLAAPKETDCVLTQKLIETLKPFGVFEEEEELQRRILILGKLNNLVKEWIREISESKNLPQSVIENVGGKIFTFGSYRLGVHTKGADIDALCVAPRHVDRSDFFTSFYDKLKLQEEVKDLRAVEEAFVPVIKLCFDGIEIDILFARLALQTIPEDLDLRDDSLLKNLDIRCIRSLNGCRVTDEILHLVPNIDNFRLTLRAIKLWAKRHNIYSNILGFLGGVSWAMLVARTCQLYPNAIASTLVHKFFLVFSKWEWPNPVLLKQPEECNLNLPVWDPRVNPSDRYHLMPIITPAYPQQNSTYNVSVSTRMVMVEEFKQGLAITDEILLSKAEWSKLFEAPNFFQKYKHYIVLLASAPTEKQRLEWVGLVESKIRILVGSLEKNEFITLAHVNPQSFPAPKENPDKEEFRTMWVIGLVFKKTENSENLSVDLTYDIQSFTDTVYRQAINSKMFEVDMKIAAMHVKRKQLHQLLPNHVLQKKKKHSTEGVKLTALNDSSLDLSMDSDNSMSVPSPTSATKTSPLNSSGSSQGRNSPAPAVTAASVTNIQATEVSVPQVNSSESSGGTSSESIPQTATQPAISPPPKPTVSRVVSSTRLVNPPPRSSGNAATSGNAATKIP

Measured: binding

HA-tagged human CPSF4 (from UniProt O95639 1-269)
binds: all assays above
